Assay results as given in PubChem BioAssay AID588497 (NMMLSC, 2011).
About 780 (0.22%) of roughly 360,000 compounds were called active. The shares of active, inactive and inconclusive entries below differ from those in the screen. Cut-off read from the data, not from the text of the source: active = inhibition above about 35% (passing the limit was not always enough); inconclusive = no clear call, values can overlap the other calls.

Each molecule was assayed on Botulinum neurotoxin type F light chain protease (Clostridium botulinum) (assay: BoNT/F light chain protease inhibitors, primary screen, biochemical, flow cytometry, MLPCN library (AID 588497; note: plate controls were buffer without enzyme for full effect and enzyme alone for no effect)). Conditions: Multiplex microsphere protease cleavage assay, at 10 µM, hits give high values.

Row | Compound | inhibition
1 | CCCn1c(=O)c(C(=O)Nc2cc(C)ccn2)c(O)c2ccccc21 | inconclusive: 11.4%
2 | Cc1ccc(NC(=O)c2cccs2)cc1NC(=O)c1cccc(F)c1 | inconclusive: 6.1%
3 | Cc1ccc2nc(SCC(=O)Nc3ccc4c(c3)OCCO4)nc(=O)n2c1 | inconclusive: -23.9%
4 | COc1ccccc1CNC(=O)C(C)Oc1ccccc1 (stereo not given) | inconclusive: -14.3%
5 | Cc1ccc2[nH]c(CN3CCN(C)C(CCO)C3)c(C)c2c1 (stereo not given) | inconclusive: 6.6%
6 | Nc1ccc(Sc2ccccc2Cl)nc1 | inconclusive: 21.5%
7 | COc1ccccc1C(c1nnnn1CCc1ccccc1)N1CCCCCC1 (stereo not given) | inconclusive: 46.9%
8 | Fc1ccccc1CNCC1CCCO1 (stereo not given) | inconclusive: -11.9%
9 | C[C@H]1CN([C@@H](C)CO)C(=O)CCCn2cc(nn2)CO[C@@H]1CN(C)C(=O)Nc1ccccc1F | inactive: -5.4%
10 | O=C(N=c1ccn(-c2nc3ccccc3nc2NS(=O)(=O)c2ccccc2)cc1)c1cccs1 | inactive: 1.6%
11 | Cc1ccc(N=C2C(=O)Nc3ccccc32)cc1 | inconclusive: -9.5%
12 | CCOC(=O)c1sc(NC(=O)CN2CC(C)OC(C)C2)nc1C (stereo not given) | inactive: -1%
13 | NS(=O)(=O)c1cc(C(=O)OCC(=O)Nc2ccc3c(c2)OCO3)ccc1Cl | inactive: -3.2%
14 | CCOC(=O)c1cnn(CCOC(=O)Cc2cccs2)c1NC(=O)Cc1cccs1 | inactive: 1.3%
15 | COCc1[nH]c(=S)[nH]c(=O)c1C | inconclusive: -54.3%
16 | COCCCNC(=S)N/N=C/c1ccc(N(C)C)cc1Cl | inconclusive: -34.6%
17 | COc1cc(CN2CCC(C(=O)NCCC(C)C)CC2)ccc1OCc1ccccc1 | inconclusive: -41.4%
18 | CCC1CCc2c(sc(NC(=O)c3cnccn3)c2C(N)=O)C1 (stereo not given) | inactive: 8.8%
19 | Cc1nnc(NC(=O)C23CC4CC(C)(CC(C)(C4)C2)C3)s1 | inconclusive: 12.6%
20 | COc1ccccc1NS(=O)(=O)c1cc(Cl)ccc1OC | inactive: -3.5%

Structures shown so far that have two or more sulfur atoms (2):
Row | Compound | inhibition
10 | O=C(N=c1ccn(-c2nc3ccccc3nc2NS(=O)(=O)c2ccccc2)cc1)c1cccs1 | inactive: 1.6%
14 | CCOC(=O)c1cnn(CCOC(=O)Cc2cccs2)c1NC(=O)Cc1cccs1 | inactive: 1.3%

Further compounds

Row | Compound | inhibition
21 | COc1ccc(C)cc1S(=O)(=O)Nc1ccc(-n2c(C)nc3ccccc3c2=O)cc1 | inconclusive: 16%
22 | O=c1c2cc(-c3ccccc3)sc2nc2n1N=C(c1ccccc1)CS2 | inconclusive: 31.5%
23 | COc1ccc(OC)c(NC(=O)CSc2nc(=O)n(Cc3ccccn3)c3c2CCC3)c1 | inconclusive: -4.9%
24 | N#C/C(=N\Nc1c(Cl)cccc1Cl)C(=O)NN | inactive: -1%
25 | COc1ccc(CCNC(=O)c2ccc(CS(=O)(=O)c3ccc(Cl)cc3)o2)cc1OC | inactive: 1.6%
26 | COCCNS(=O)(=O)c1ccc(Cl)c(C(=O)NC2CCN(Cc3ccccc3)CC2)c1 | inactive: 0.7%
27 | CC(C)(C)c1ccc(CCC2OCC(CN3CCOCC3)O2)cc1 (stereo not given) | inconclusive: -76.6%
28 | O=C(CSC(=S)N1CCOCC1)Nc1ncc2c(n1)CC(c1ccco1)CC2=O (stereo not given) | inconclusive: 34.2%
29 | O=C(NCC1CCCO1)c1cc2n(n1)C(C(F)(F)F)CC(c1ccc(F)cc1)N2 (stereo not given) | inconclusive: -10.2%
30 | COc1cc(C(C)=O)ccc1OCC(=O)Nc1ccccc1N1CCCCC1 | inconclusive: 2.4%
31 | CCOC(=O)C1CCCN(CC(=O)Nc2nccs2)C1 (stereo not given) | inactive: -8.5%
32 | CCOCCOC(=O)Cn1cnc2scc(-c3ccc(C)cc3)c2c1=O | inconclusive: -7%
33 | Cc1nc(-c2ccccc2)nc2sc(C(=O)c3ccc(F)cc3)c(N)c12 | inconclusive: 38.8%
34 | Oc1ccccc1CN1CCN(C(c2ccccc2)c2ccccc2)CC1 | inconclusive: -8.2%
35 | CCOc1ccc(OCCCC(=O)N(C)CC(=O)Nc2ccc(N3CCOCC3)cc2)cc1 | inconclusive: 15.2%
36 | Cc1ccc(S(=O)(=O)NCCCC(=O)N2CCC(C)CC2)cc1 | inconclusive: -13%
37 | CC(C)(C)c1ccc(OCCC(=O)OCC(=O)NC(=O)NC2CCCC2)cc1 | inconclusive: -3.9%
38 | COc1ccc(OCCC(=O)OCc2c(C)noc2C)cc1 | inactive: -8.1%
39 | Cc1cccc[n+]1CC(=O)Nc1ccccc1 | active: 36.7%
40 | CN(C(=O)Nc1ccc(Cl)cc1Cl)[C@H]1c2cc(Br)ccc2OC[C@H]1CO | inactive: -12%

Entries shown so far containing a tert-butyl group (2):
Row | Compound | inhibition
27 | CC(C)(C)c1ccc(CCC2OCC(CN3CCOCC3)O2)cc1 (stereo not given) | inconclusive: -76.6%
37 | CC(C)(C)c1ccc(OCCC(=O)OCC(=O)NC(=O)NC2CCCC2)cc1 | inconclusive: -3.9%

Remaining list, next part.

Row | Compound | inhibition
41 | Cc1ccc(F)c(S(=O)(=O)NC(=O)C2(C)CCN2C(=O)Cc2ccc(Cl)cc2Cl)c1 (stereo not given) | inactive: -0.5%
42 | Cc1cc(NS(=O)(=O)c2ccc(NC(=O)COc3ccccc3C(C)C)cc2)no1 | inactive: -10.5%
43 | COCc1cc(C)nc(NC2CC(C)(C)NC(C)(C)C2)c1C#N | inconclusive: 8%
44 | CC(C)Cc1ccc(C(C)C(N)=Nc2ccc(O)cc2)cc1 (stereo not given) | inconclusive: 22.5%
45 | CC1(C(=O)NCCC(F)(F)F)Cc2c(-c3ccccc3)ccnc2O1 (stereo not given) | inactive: 4%
46 | O=S(=O)(/N=C/c1c(O)ccc2ccccc12)c1ccccc1 | active: 42.2%
47 | Cc1cc2c([nH]c3ccccc32)c(C)n1 | inconclusive: -26.1%
48 | CN(C)/C(=N\O)c1c(Cl)cccc1Cl | inconclusive: -34.6%
49 | CCCCNC(=O)CNC(=O)c1cccs1 | inactive: -6.8%
50 | CC1C(=O)N2CCCc3cc(NC(=O)C(=O)NCCc4ccccc4)cc1c32 (stereo not given) | inconclusive: 14.2%
51 | CC(=O)N1Cc2[nH]c3ccccc3c2CC1C(=O)O (stereo not given) | inconclusive: -17.5%
52 | Cc1ccccc1NC(=O)c1cc[n+]([O-])cc1 | inactive: 9.6%
53 | CCOc1ccccc1NC(=O)CSc1nnc(Cc2ccc(OC)cc2)c(=O)n1N | inconclusive: -2.4%
54 | COC(=O)C(C)n1cnc2c(nnn2-c2ccc(C)cc2)c1=O (stereo not given) | inactive: -3.1%
55 | CN(Cc1ccccc1)C(=O)c1cccc(C(=O)N(C)Cc2ccccc2)c1 | inconclusive: -8.1%
56 | CNc1ccc(Cl)cc1C(N)=O | inconclusive: 43%
57 | COc1ccc(NC(=O)c2cn(CCC#N)nc2-c2ccccc2)cc1 | inconclusive: -9.8%
58 | Cc1nc(C(=O)NNC(=O)Nc2ccc(Cl)cc2)cs1 | inconclusive: -118%
59 | CCCN(C(=O)c1ccc2c(SCC(=O)O)c3c(nc2c1)CCC3)c1cccc(C)c1 | inactive: -2.1%
60 | O=C(O)C1(NS(=O)(=O)c2ccc(Cl)cc2)CCCCC1 | inactive: 2%
